Test results reported in article PMC8983679.
Results are given in words; binding and its absence hold for the method and conditions named. Binding seen in cells or lysates may run through a third protein. Binding can be weak; no strength is given.

Biological target: YTH N6-methyladenosine RNA-binding protein 2 (Ythdf2) (rat (endogenous in H9c2))
Test: co-IP; endogenous proteins in H9c2 cell lysate; lysates incubated with specific antibodies and Protein A/G beads at 4 °C for 12 h, washed three times, western blot

B1: Carnitine palmitoyl transferase-1a (CPT-1a) (protein, UniProt P32198 1-773)
chain: MAEAHQAVAFQFTVTPDGIDLRLSHEALKQICLSGLHSWKKKFIRFKNGIITGVFPANPSSWLIVVVGVISSMHAKVDPSLGMIAKISRTLDTTGRMSSQTKNIVSGVLFGTGLWVAVIMTMRYSLKVLLSYHGWMFAEHGKMSRSTKIWMAMVKVLSGRKPMLYSFQTSLPRLPVPAVKDTVSRYLESVRPLMKEEDFQRMTALAQDFAVNLGPKLQWYLKLKSWWATNYVSDWWEEYIYLRGRGPLMVNSNYYAMEMLYITPTHIQAARAGNTIHAILLYRRTLDREELKPIRLLGSTIPLCSAQWERLFNTSRIPGEETDTIQHIKDSRHIVVYHRGRYFKVWLYHDGRLLRPRELEQQMQQILDDPSEPQPGEAKLAALTAADRVPWAKCRQTYFARGKNKQSLDAVEKAAFFVTLDESEQGYREEDPEASIDSYAKSLLHGRCFDRWFDKSITFVVFKNSKIGINAEHSWADAPVVGHLWEYVMATDVFQLGYSEDGHCKGDTNPNIPKPTRLQWDIPGECQEVIDASLSSASLLANDVDLHSFPFDSFGKGLIKKCRTSPDAFIQLALQLAHYKDMGKFCLTYEASMTRLFREGRTETVRSCTMESCNFVQAMMDPKSTAEQRLKLFKIACEKHQHLYRLAMTGAGIDRHLFCLYVVSKYLAVDSPFLKEVLSEPWRLSTSQTPQQQVELFDFEKNPDYVSCGGGFGPVADDGYGVSYIIVGENFIHFHISSKFSSPETDSHRFGKHLRQAMMDIITLFGLTINSKK
Q: For B1, which binding is on record?
A: binds
